# The list shows a part of the results.
# B1: R2-fiber (Pseudomonas aeruginosa), Q9S576 (protein)
# chain: HHHHHHKVAKDLVVSLAYQVRTEDGVLVDESPVSAPLDYLHGHGSLISGLETALEGHEVGDKFDVAVGANDAYGQYDENLVQRVPKDVFMGVDELQVGMRFLAETDQGPVPVEITAVEDDHVVVDGNHMLAGQNLKFNVEVVAIREATEEELAHGHVHGAHDHHHDHDHDGCCGGHGHDHGHEHGGEGCCGGKGNGGCGCHENLYFQGVTAGMALAATDIPGLDASKLVSGVLAEQRLPVFARGLATAVSNSSDPNTATVPLMLTNHANGPVAGRYFYIQSMFYPDQNGNASQIATSYNATSEMYVRVSYAANPSIREWLPWQRCDIGGSFTKEADGELPGGVNLDSMVTSGWWSQSFTAQAASGANYPIVRAGLLHVYAASSNFIYQTYQAYDGESFYFRCRHSNTWFPWRRMWHGGDFNPSDYLLKSGFYWNALPGKPATFPPSAHNHDVGQLTSGILPLARGGVGSNTAAGARSTIGAGVPATASLGASGWWRDNDTGLIRQWGQVTCPADADASITFPIPFPTLCLGGYANQTSAFHPGTDASTGFRGATTTTAVIRNGYFAQAVLSWEAFGR
# Columns and labels:
# Assay in all cases: glycan array binding signal (z-score within array); higher = stronger binding
# Conditions in all cases: glycan notation: IUPAC condensed, linker removed
# [1] = biological target: Gal(a1-3)Gal(b1-4)GlcNAc
# Outline: (§1)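 From the Consortium for Functional Glycomics database, 3228 arrays were curated, keeping only those whose protein sequence was available. Binding is given as a within-array Z-score averaged across arrays sharing a protein sequence and across linkers. Negative Z-scores can be read as non-binding.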
# [2] = biological target: Gal(a1-3)Gal(b1-4)GlcNAc(b1-2)Man
# Outline: as §1
# [3] = biological target: Gal(a1-3)Gal(b1-4)GlcNAc(b1-2)Man(a1-3)[Gal(a1-3)Gal(b1-4)GlcNAc(b1-2)Man(a1-6)]Man(b1-4)GlcNAc(b1-4)GlcNAc
# Outline: as §1
# [4] = biological target: Gal(a1-3)Gal(b1-4)GlcNAc(b1-3)GalNAc
# Outline: as §1
# [5] = biological target: Gal(a1-3)Gal(b1-4)GlcNAc(b1-6)GalNAc
# Outline: as §1
# [6] = biological target: Gal(a1-3)Gal(b1-4)[Fuc(a1-3)]GlcNAc
# Outline: as §1
# [7] = biological target: Gal(a1-3)Gal(b1-4)[Fuc(a1-3)]GlcNAc(b1-2)Man(a1-3)[Gal(a1-3)Gal(b1-4)[Fuc(a1-3)]GlcNAc(b1-2)Man(a1-6)]Man(b1-4)GlcNAc(b1-4)GlcNAc
# Outline: as §1
# [8] = biological target: Gal(a1-3)GalNAc
# Outline: as §1
# [9] = biological target: Gal(a1-3)[Gal(a1-4)]Gal(b1-4)GlcNAc
# Outline: as §1
# [10] = biological target: Gal(a1-4)Gal(b1-3)GlcNAc(b1-2)Man(a1-3)[Gal(a1-4)Gal(b1-3)GlcNAc(b1-2)Man(a1-6)]Man(b1-4)GlcNAc(b1-4)GlcNAc
# Outline: as §1
# [11] = biological target: Gal(a1-4)Gal(b1-4)Glc
# Outline: as §1
# [12] = biological target: Gal(a1-4)Gal(b1-4)GlcNAc
# Outline: as §1
# [13] = biological target: Gal(a1-4)Gal(b1-4)GlcNAc(b1-2)Man(a1-3)[Gal(a1-4)Gal(b1-4)GlcNAc(b1-2)Man(a1-6)]Man(b1-4)GlcNAc(b1-4)GlcNAc
# Outline: as §1
# [14] = biological target: Gal(a1-4)Gal(b1-4)GlcNAc(b1-3)Gal(b1-4)Glc
# Outline: as §1
# [15] = biological target: Gal(a1-4)GlcNAc
# Outline: as §1
# [16] = biological target: Gal(a1-6)Glc
# Outline: as §1
# [17] = biological target: Gal(b1-2)Gal
# Outline: as §1
# [18] = biological target: Gal(b1-3)Gal
# Outline: as §1
# [19] = biological target: Gal(b1-3)Gal(b1-4)GlcNAc
# Outline: as §1
# [20] = biological target: Gal(b1-3)GalNAc
# Outline: as §1
# [21] = biological target: Gal(b1-3)GalNAc(a1-3)[Fuc(a1-2)]Gal(b1-4)Glc
# Outline: as §1
# [22] = biological target: Gal(b1-3)GalNAc(a1-3)[Fuc(a1-2)]Gal(b1-4)GlcNAc
# Outline: as §1
# [23] = biological target: Gal(b1-3)GalNAc(b1-3)Gal
# Outline: as §1
# [24] = biological target: Gal(b1-3)GalNAc(b1-3)Gal(a1-4)Gal(b1-4)Glc
# Outline: as §1
# [25] = biological target: Gal(b1-3)GalNAc(b1-4)Gal(b1-4)Glc
# Outline: as §1
# [26] = biological target: Gal(b1-3)GalNAc(b1-4)[Neu5Ac(a2-3)]Gal(b1-4)Glc
# Outline: as §1
# [27] = biological target: Gal(b1-3)GlcNAc
# Outline: as §1
# [28] = biological target: Gal(b1-3)GlcNAc(a1-3)Gal(b1-4)GlcNAc
# Outline: as §1
# [29] = biological target: Gal(b1-3)GlcNAc(a1-6)Gal(b1-4)GlcNAc
# Outline: as §1
# [30] = biological target: Gal(b1-3)GlcNAc(b1-2)Man
# Outline: as §1
binder,measurement,setting,value
B1,glycan array binding signal (z-score),[1],-0.291
same,glycan array binding signal (z-score),[2],0.037
same,glycan array binding signal (z-score),[3],1
same,glycan array binding signal (z-score),[4],-0.829
same,glycan array binding signal (z-score),[5],-0.437
same,glycan array binding signal (z-score),[6],-0.968
same,glycan array binding signal (z-score),[7],0.638
same,glycan array binding signal (z-score),[8],-0.479
same,glycan array binding signal (z-score),[9],-0.139
same,glycan array binding signal (z-score),[10],0.322
same,glycan array binding signal (z-score),[11],-0.036
same,glycan array binding signal (z-score),[12],-0.114
same,glycan array binding signal (z-score),[13],0.239
same,glycan array binding signal (z-score),[14],-0.891
same,glycan array binding signal (z-score),[15],-0.479
same,glycan array binding signal (z-score),[16],-0.42
same,glycan array binding signal (z-score),[17],0.015
same,glycan array binding signal (z-score),[18],-0.094
same,glycan array binding signal (z-score),[19],-0.114
same,glycan array binding signal (z-score),[20],-0.235
same,glycan array binding signal (z-score),[21],-0.584
same,glycan array binding signal (z-score),[22],-0.391
same,glycan array binding signal (z-score),[23],-1.13
same,glycan array binding signal (z-score),[24],-0.931
same,glycan array binding signal (z-score),[25],-0.446
same,glycan array binding signal (z-score),[26],-0.537
same,glycan array binding signal (z-score),[27],-0.177
same,glycan array binding signal (z-score),[28],-1.35
same,glycan array binding signal (z-score),[29],0.397
same,glycan array binding signal (z-score),[30],0.298

# Random excerpt: two entries already listed.
binder,measurement,setting,value
B1,glycan array binding signal (z-score),[26],-0.537
same,glycan array binding signal (z-score),[9],-0.139

# — the supplement of paper PMC8728848
